{"sequences": {"note": "Protein sequences, listed by entry. Tags and fused reporters are not part of them. Lines headed by an entry give the natural chain unless they say otherwise; changes in a name come on top.", "UniProt P14416, whole entry, looked up": "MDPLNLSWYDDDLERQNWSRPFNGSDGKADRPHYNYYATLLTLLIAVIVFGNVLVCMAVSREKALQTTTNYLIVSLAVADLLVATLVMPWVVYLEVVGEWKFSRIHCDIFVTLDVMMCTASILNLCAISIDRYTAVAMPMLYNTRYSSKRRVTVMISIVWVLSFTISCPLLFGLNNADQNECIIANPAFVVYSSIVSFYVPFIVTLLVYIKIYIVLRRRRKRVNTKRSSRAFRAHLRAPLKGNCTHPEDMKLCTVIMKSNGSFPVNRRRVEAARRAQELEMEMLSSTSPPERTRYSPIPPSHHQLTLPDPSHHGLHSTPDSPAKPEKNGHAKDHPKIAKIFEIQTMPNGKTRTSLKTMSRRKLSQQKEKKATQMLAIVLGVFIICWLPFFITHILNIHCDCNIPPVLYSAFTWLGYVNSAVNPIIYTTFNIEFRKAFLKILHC", "UniProt P28223, whole entry, looked up": "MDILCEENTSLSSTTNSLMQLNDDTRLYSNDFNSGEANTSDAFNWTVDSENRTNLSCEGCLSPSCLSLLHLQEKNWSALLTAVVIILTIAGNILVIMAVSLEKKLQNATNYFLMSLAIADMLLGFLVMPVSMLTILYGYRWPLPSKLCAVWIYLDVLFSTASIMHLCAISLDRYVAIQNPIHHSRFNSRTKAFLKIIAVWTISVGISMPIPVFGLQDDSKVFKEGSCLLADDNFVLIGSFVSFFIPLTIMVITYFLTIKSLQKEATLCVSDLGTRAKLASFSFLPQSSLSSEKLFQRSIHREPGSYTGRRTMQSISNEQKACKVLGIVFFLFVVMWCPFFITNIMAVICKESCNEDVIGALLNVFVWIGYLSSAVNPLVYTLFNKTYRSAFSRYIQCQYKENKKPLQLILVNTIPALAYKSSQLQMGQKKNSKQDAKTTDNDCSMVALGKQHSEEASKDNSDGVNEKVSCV", "UniProt P11229": "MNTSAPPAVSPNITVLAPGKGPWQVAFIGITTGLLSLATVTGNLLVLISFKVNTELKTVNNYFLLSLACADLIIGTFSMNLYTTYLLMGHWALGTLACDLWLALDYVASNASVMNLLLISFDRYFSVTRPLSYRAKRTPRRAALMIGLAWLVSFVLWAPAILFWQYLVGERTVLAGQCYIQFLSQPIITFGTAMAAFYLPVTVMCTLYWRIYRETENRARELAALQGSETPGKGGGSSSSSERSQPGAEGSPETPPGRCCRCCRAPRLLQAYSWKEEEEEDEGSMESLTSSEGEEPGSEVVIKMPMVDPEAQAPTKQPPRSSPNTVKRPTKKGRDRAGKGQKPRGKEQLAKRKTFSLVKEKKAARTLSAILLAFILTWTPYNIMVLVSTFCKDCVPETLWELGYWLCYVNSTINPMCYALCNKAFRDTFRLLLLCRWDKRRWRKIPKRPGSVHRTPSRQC"}, "source": "PubChem BioAssay (Tox21)", "key": {"[1]": {"test": "Nuclear factor erythroid 2-related factor 2/antioxidant responsive element (Nrf2/ARE) small molecule agonists: luciferase reporter gene qHTS assay in human keratinocytes (AID 1919969); also: potency is read from the fitted curve at half-maximal effect; nearly all actives have a fitted effect of over 35% in size", "settings": "KeratinoSens HaCaT ARE-luciferase, luminescence, 24 h; series mostly up to 92.4 µM"}, "[2]": {"test": "p53 small molecule agonists, cell-based qHTS assay: qHTS cell viability counter screen (AID 1963581); also: % is scaled to controls: 0 for no effect and ±100 for the full control effect; nearly all actives have a fitted effect of over 45% in size", "settings": "p53RE-bla HCT-116 viability, ATP luminescence, 16 h; series mostly up to 66 µM", "summary_of_the_method": "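Multiplexed with the reporter read, a CellTiter-Glo step (30 min, room temperature) gauges ATP-based viability of HCT-116 p53RE-bla cells after 16 h compound incubation at 37 C.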"}, "[3]": {"test": "cAMP Responsive Elements (CRE) small molecule agonists, cell-based qHTS assay (AID 1963590); also: potency is read from the fitted curve at half-maximal effect", "settings": "CRE-bla HEK293T, beta-lactamase FRET ratio, 3 h; activation: at 92.4 µM (top of the series) unless noted", "summary_of_the_method": "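Quantitative HTS for CRE agonists: HEK 293T CRE-bla cells, overnight plating, 3 h compound incubation at 37 C/5% CO2, then 2 h room-temperature LiveBLAzer B/G FRET substrate loading.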"}, "[4]": {"target": "Beta-2 adrenergic receptor (Homo sapiens) (UniProt P07550)", "test": "Adrenergic beta2 receptor (ADRB2) small molecule agonists, cell-based qHTS assay (AID 1963593); also: potency is read from the fitted curve at half-maximal effect; as to activation: % is scaled to controls: 0 for no effect and ±100 for the full control effect", "settings": "CHO-ADRB2 cells, cAMP HTRF, 30 min; activation: at 92.4 µM (top of the series) unless noted", "summary_of_the_method": "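CHO cells stably over-expressing ADRB2 were plated overnight at 37C, then dosed with compounds plus a stimulation mix containing 100uM IBMX and 25uM Ro-20-1724 for 0.5hr at room temperature. cAMP was measured by HTRF competition, 1hr.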"}, "[5]": {"target": "D(2) dopamine receptor (Homo sapiens) (UniProt P14416)", "test": "Dopamine D2 receptor (DRD2) small molecule agonists, cell-based qHTS assay (AID 1963594); also: % is scaled to controls: 0 for no effect and ±100 for the full control effect; nearly all actives have a fitted effect of over 35% in size", "settings": "HEK293-DRD2 cAMP HTRF, agonist mode, 30 min; activation: at 92.4 µM (top of the series) unless noted", "summary_of_the_method": "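cAMP accumulation in DRD2-HEK293 cells measured by HTRF after 1 h detection; compounds added 10 min before NKH477 (200nM […]) forskolin-analogue stimulation, 30 min at room temperature, with Ro20-1724 present at 0.1 mM final.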"}, "[6]": {"target": "D(2) dopamine receptor (Homo sapiens) (UniProt P14416)", "test": "Dopamine D2 receptor (DRD2) small molecule antagonists, cell-based qHTS assay (AID 1963595; active = well fitted inhibition curve with a large enough effect in the signal ratio in the repeat runs, with a control signal flat; inconclusive = weak or mixed curves, or effect the other way; the % refers to the signal ratio; also: potency is read from the fitted curve at half-maximal effect; as to activity change, negative = inhibition: % is scaled to controls: 0 for no effect and ±100 for the full control effect)", "settings": "HEK293-DRD2 cAMP HTRF antagonist mode; activity change, negative = inhibition: at 92.4 µM (top of the series) unless noted", "summary_of_the_method": "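In this cell-based antagonist screen, compounds act for 10 min at room temperature before a 30 min challenge with 12 nM quinpirole and 200 nM NKH477. cAMP is quantified by HTRF competition in DRD2-HEK293 cells containing 0.1 mM Ro20-1724.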"}, "[7]": {"target": "5-hydroxytryptamine receptor 2A (Homo sapiens) (UniProt P28223)", "test": "5-hydroxytryptamine receptor 2A (HTR2A) small molecule antagonists, cell-based qHTS assay (AID 1963586); also: potency is read from the fitted curve at half-maximal effect; nearly all actives have a fitted effect of over 45% in size", "settings": "HTR2A-CHO cells, DOI-induced calcium flux, fluorescence; series mostly up to 61.5 µM", "summary_of_the_method": "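CHO cells stably expressing human HTR2A were plated for 18 h at 37 C, then loaded with calcium dye for 1 h. Compounds were preincubated 5 min at room temperature before DOI (4 nM solution) was added. Kinetic fluorescence was read for 3 min.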"}, "[8]": {"test": "cAMP Responsive Elements (CRE) small molecule antagonists, cell-based qHTS assay (AID 1963591; active = well fitted inhibition curve with a large enough effect in the signal ratio in the repeat runs, not every such curve was filed as active; inconclusive = weak or mixed curves, or effect the other way; the % refers to the signal ratio; also: potency is read from the fitted curve at half-maximal effect)", "settings": "CRE-bla HEK293T, beta-lactamase FRET ratio; activity change, negative = inhibition: at 92.4 µM (top of the series) unless noted", "summary_of_the_method": "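Fluorescence intensity from cleaved LiveBLAzer B/G substrate (2 h, room temperature) quantified CRE-bla activity in HEK 293T cells exposed 3 h to compound with 0.25 uM final NKH477.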"}, "[9]": {"test": "p53 small molecule agonists, cell-based qHTS assay (AID 1963582; active = well fitted activation curve with a large enough effect in the signal ratio in the repeat runs, not every such curve was filed as active; inconclusive = weak or mixed curves; the % refers to the signal ratio; also: potency is read from the fitted curve at half-maximal effect)", "settings": "HCT-116 p53RE-bla reporter, beta-lactamase FRET ratio, 16 h; activation: at 66 µM (top of the series) unless noted", "summary_of_the_method": "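Beta-lactamase reporter cells (p53RE-bla) treated with compounds for 16 h at 37 C; FRET substrate, 2 h, room temperature; fluorescence intensity.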"}, "[10]": {"target": "Muscarinic acetylcholine receptor M1 (Homo sapiens) (UniProt P11229)", "test": "Cholinergic receptor muscarinic 1 (CHRM1) small molecule antagonists, cell-based qHTS assay (AID 1963588); also: potency is read from the fitted curve at half-maximal effect; nearly all actives have a fitted effect of over 40% in size", "settings": "CHRM1-CHO antagonist mode, calcium flux fluorescence; series mostly up to 61.5 µM", "summary_of_the_method": "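Compounds were tested at 15 concentrations in three independent runs. Dye-loaded CHRM1-CHO cells were exposed 5 min at room temperature before stimulation by acetylcholine added at 50nM. Intracellular calcium was read kinetically on FDSS for 3 min.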"}, "[11]": {"target": "Beta-2 adrenergic receptor (Homo sapiens) (UniProt P07550)", "test": "Adrenergic beta2 receptor (ADRB2) small molecule antagonists, cell-based qHTS assay (AID 1963592); also: potency is read from the fitted curve at half-maximal effect; nearly all actives have a fitted effect of over 50% in size", "settings": "CHO-ADRB2 cells, isoproterenol-stimulated cAMP HTRF ratio, 0.5 h; activity change, negative = inhibition: at 92.4 µM (top of the series) unless noted", "summary_of_the_method": "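Assay format: CHO-ADRB2 cells, 18-20hr seeding at 37C/5% CO2, then compound plus 1nM isoproterenol agonist mix for 0.5hr RT. Homogeneous time-resolved fluorescence cAMP detection after 1hr, expressed as 665/615 nm ratio.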"}}, "note": "“And” between values parts separate entries of the source, which are not always exact repeats. Identical values can stand only once. This list was built around the results that the source calls inconclusive (neither active nor inactive); the mix of calls is not that of the screen. For part of these data: Where the call is inconclusive, the potency comes from a doubtful curve fit. The source made the active and inactive calls. Unless noted, calls follow the shape of the full dose curve.", "data": [{"smiles": "FC(F)C(F)(F)OCC(Cn1cncn1)c1ccc(Cl)cc1Cl", "note": "(stereo unspecified)", "values": [{"measurement": "Potency", "setting": "[1]", "value": "inconclusive: 68.2 µM [activator]"}, {"measurement": "Potency", "setting": "[2]", "value": "inactive"}, {"measurement": "Potency", "setting": "[3]", "value": "inconclusive: 60.8 µM [fluorescent]"}, {"measurement": "activation", "setting": "[4]", "value": "inconclusive: -57.7%"}, {"measurement": "Potency", "setting": "[5]", "value": "inactive"}, {"measurement": "Potency", "setting": "[6]", "value": "inconclusive: 68.2 µM [inhibitor, single point]"}]}, {"smiles": "CC(C)COC(=O)c1ccccc1C(=O)OCC(C)C", "values": [{"measurement": "Potency", "setting": "[1]", "value": "inconclusive: 61.1 µM [activator, partial curve, poor fit]"}, {"measurement": "Potency", "setting": "[7]", "value": "inconclusive: 14.9 µM [inhibitor, full curve]"}, {"measurement": "Potency", "setting": "[8]", "value": "inconclusive: 77 µM [rising, partial curve, poor fit]"}, {"measurement": "Potency", "setting": "[4]", "value": "inconclusive: 61.1 µM [inhibitor, partial curve, poor fit] and inactive"}, {"measurement": "activity change, negative = inhibition", "setting": "[6]", "value": "inconclusive: 5.03%"}]}, {"smiles": "C[C@]12CC[C@H]3[C@@H](CCC4=CC(=O)CC[C@@H]43)[C@@H]1CC[C@@H]2OC(=O)CCC1CCCCC1", "values": [{"measurement": "Potency", "setting": "[1]", "value": "inconclusive: 33.5 µM [activator, single point]"}, {"measurement": "Potency", "setting": "[9]", "value": "inconclusive: 19.9 µM [activator, partial curve, poor fit]"}, {"measurement": "activation", "setting": "[4]", "value": "inconclusive: 55.8% [at 42.5 µM]"}, {"measurement": "activity change, negative = inhibition", "setting": "[6]", "value": "inconclusive: -16.7% [at 42.5 µM]"}]}, {"smiles": "CCOCN(C(=O)CCl)c1c(C)cccc1CC", "values": [{"measurement": "Potency", "setting": "[1]", "value": "active: 25.8 µM and active: 68.6 µM"}, {"measurement": "Potency", "setting": "[10]", "value": "inconclusive: 5.6 nM [inhibitor, full curve, poor fit] and inconclusive: 4.21 µM [inhibitor, full curve]"}, {"measurement": "Potency", "setting": "[8]", "value": "inconclusive: 61.1 µM and inconclusive: 54.5 µM [activator]"}, {"measurement": "Potency", "setting": "[11]", "value": "inconclusive: 28.9 µM [inhibitor, partial curve, poor fit]"}, {"measurement": "Potency", "setting": "[4]", "value": "inconclusive: 10.3 µM [inhibitor, partial curve, poor fit]"}, {"measurement": "activation", "setting": "[4]", "value": "inconclusive: -40.9%"}]}]}
